Source: the supplement of paper PMC6411743
± gives the standard deviation of the averaged measurements. Only a part is listed here, and it is no random draw. Most values lie at the level of the controls, where differences are scatter.

Amino acid sequences for entries named in this document (tags omitted). A change or cut given only in a name is not applied to a line headed by its entry.
UniProt Q6WKZ4: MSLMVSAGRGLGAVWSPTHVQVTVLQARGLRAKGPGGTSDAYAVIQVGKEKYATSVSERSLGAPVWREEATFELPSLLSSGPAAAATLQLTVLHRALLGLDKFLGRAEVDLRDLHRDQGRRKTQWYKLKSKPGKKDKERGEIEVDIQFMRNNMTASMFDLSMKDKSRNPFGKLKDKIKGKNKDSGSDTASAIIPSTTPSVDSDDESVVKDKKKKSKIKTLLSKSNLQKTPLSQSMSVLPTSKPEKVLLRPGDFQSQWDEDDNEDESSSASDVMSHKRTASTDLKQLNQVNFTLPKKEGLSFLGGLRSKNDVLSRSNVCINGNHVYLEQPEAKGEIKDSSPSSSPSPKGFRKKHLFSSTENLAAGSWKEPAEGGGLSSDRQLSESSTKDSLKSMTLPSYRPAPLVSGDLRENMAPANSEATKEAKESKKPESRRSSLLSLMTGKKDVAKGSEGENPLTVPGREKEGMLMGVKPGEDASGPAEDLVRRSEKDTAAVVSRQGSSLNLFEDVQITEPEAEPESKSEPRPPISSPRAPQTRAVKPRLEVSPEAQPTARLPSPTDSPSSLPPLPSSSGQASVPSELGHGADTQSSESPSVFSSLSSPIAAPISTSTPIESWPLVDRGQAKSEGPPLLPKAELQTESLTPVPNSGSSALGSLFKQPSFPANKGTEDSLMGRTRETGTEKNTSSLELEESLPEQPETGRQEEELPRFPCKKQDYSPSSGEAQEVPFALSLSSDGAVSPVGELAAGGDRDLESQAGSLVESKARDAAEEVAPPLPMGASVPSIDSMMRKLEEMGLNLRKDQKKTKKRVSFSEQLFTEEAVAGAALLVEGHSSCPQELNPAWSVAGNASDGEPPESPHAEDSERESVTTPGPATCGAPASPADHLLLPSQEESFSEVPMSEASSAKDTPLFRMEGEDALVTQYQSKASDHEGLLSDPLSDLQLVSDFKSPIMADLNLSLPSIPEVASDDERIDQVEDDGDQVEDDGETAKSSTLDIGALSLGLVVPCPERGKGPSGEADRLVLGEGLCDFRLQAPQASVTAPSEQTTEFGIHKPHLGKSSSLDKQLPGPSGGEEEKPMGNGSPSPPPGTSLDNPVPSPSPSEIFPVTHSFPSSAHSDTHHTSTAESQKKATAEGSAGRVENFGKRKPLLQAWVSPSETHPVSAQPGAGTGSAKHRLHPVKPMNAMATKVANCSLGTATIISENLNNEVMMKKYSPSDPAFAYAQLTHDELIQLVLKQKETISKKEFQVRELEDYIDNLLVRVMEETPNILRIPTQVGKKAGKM
UniProt Q7L5D6: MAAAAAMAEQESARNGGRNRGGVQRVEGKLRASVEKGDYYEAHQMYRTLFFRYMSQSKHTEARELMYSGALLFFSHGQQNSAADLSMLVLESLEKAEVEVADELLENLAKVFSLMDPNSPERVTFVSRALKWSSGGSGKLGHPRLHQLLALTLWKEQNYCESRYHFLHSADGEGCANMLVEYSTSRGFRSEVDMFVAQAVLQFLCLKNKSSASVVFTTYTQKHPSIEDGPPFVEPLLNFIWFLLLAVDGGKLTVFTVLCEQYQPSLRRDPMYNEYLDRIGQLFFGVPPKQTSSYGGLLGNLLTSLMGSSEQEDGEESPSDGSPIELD
UniProt Q6P4I2: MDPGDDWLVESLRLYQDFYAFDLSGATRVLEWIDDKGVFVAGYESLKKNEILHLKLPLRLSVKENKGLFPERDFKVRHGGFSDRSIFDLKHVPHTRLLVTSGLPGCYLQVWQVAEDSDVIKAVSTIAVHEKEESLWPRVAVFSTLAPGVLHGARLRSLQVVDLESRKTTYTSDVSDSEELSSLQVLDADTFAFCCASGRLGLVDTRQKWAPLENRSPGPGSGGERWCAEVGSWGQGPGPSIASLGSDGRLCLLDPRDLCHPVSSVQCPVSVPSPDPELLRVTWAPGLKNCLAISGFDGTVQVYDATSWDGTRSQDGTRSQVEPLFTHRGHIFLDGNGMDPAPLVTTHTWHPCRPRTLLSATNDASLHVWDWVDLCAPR
UniProt Q6UWE0: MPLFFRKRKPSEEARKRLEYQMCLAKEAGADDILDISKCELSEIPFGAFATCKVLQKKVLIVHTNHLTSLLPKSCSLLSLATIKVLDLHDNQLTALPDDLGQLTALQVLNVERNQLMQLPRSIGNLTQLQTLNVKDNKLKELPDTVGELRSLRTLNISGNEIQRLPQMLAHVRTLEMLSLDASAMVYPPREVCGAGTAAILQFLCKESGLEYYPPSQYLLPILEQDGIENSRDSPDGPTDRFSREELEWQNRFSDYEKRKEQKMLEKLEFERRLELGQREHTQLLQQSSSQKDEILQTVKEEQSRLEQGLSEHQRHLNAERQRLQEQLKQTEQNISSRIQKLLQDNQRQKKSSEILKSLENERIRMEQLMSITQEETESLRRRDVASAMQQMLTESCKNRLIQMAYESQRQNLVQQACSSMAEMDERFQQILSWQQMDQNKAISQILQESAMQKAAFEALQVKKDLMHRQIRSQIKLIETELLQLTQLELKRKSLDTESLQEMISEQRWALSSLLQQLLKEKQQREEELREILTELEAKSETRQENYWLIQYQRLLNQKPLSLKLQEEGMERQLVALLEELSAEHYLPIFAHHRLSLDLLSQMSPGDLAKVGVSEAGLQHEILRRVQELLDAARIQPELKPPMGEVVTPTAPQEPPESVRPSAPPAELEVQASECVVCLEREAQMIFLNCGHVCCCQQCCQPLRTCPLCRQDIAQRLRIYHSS
UniProt Q6ICB0: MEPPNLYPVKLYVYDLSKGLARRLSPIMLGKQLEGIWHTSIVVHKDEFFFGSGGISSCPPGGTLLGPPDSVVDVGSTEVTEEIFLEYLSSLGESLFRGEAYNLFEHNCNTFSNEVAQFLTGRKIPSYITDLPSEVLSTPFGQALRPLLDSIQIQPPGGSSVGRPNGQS
UniProt Q6UN15: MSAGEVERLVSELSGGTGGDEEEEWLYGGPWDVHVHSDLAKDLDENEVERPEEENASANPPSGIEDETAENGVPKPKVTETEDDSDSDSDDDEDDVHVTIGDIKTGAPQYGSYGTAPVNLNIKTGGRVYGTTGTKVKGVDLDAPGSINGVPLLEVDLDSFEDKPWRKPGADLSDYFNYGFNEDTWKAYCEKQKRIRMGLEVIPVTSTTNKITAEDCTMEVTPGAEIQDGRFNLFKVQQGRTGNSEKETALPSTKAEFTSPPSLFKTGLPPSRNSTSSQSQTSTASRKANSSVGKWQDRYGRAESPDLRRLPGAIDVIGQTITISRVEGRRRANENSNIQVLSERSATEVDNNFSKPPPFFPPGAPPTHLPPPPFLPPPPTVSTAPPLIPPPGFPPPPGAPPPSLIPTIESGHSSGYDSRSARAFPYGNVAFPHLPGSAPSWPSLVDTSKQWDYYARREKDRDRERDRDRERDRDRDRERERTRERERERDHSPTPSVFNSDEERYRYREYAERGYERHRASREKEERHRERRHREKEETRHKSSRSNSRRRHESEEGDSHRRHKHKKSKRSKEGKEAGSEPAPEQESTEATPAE
UniProt Q6JBY9, whole entry: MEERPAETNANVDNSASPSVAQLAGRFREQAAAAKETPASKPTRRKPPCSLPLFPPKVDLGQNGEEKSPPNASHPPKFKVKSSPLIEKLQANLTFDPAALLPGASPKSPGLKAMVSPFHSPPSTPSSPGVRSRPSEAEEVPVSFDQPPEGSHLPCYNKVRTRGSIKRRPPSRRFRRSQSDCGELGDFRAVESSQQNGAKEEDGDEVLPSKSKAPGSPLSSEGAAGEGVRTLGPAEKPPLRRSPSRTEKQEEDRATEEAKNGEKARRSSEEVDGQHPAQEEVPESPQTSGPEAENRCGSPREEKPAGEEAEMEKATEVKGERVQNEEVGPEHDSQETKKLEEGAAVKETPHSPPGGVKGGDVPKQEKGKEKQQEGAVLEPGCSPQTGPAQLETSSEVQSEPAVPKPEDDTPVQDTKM
UniProt Q5W0B1: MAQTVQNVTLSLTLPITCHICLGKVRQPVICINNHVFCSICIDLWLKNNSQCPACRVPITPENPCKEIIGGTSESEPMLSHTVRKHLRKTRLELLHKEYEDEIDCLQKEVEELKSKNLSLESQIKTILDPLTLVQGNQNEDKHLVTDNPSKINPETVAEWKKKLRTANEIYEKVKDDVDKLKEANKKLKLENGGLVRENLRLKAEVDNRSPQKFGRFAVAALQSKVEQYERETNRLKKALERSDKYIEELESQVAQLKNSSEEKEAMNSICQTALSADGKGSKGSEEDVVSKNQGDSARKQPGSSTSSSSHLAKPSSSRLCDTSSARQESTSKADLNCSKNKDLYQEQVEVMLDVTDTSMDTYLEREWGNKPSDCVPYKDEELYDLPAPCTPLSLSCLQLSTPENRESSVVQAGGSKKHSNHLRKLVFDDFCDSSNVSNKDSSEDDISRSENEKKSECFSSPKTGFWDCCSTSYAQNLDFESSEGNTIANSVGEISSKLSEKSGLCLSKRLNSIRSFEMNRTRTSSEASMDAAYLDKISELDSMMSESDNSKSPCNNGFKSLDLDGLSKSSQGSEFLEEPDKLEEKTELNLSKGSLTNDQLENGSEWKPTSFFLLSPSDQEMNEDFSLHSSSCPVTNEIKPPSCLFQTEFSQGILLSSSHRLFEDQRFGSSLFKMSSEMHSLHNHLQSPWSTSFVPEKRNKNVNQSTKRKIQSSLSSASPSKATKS
UniProt Q6P9B9, whole entry: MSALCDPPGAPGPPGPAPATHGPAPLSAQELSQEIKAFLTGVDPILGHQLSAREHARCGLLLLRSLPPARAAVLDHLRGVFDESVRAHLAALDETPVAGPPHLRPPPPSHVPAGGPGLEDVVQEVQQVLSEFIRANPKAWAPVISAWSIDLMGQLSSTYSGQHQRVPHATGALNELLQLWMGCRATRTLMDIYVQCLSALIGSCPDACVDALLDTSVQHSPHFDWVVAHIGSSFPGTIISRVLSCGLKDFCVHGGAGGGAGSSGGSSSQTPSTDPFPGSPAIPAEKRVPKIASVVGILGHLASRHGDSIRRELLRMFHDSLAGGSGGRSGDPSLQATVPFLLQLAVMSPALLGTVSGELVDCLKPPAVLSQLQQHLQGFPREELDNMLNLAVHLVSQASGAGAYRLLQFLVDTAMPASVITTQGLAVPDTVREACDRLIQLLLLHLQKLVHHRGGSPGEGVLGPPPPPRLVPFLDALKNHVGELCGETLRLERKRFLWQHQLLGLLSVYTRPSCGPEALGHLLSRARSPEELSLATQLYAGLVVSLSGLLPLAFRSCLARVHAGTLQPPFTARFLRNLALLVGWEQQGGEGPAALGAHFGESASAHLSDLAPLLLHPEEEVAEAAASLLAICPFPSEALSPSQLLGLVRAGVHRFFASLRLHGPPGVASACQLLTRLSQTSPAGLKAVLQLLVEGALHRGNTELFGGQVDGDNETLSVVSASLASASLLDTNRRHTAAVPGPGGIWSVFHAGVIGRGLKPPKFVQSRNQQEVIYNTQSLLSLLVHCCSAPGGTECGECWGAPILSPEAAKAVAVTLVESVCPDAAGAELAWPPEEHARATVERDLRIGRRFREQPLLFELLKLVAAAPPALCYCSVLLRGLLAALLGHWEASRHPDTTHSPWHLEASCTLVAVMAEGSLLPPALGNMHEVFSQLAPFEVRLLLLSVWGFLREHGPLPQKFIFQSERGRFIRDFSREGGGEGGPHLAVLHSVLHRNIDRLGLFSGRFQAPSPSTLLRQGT
UniProt Q6V1X1: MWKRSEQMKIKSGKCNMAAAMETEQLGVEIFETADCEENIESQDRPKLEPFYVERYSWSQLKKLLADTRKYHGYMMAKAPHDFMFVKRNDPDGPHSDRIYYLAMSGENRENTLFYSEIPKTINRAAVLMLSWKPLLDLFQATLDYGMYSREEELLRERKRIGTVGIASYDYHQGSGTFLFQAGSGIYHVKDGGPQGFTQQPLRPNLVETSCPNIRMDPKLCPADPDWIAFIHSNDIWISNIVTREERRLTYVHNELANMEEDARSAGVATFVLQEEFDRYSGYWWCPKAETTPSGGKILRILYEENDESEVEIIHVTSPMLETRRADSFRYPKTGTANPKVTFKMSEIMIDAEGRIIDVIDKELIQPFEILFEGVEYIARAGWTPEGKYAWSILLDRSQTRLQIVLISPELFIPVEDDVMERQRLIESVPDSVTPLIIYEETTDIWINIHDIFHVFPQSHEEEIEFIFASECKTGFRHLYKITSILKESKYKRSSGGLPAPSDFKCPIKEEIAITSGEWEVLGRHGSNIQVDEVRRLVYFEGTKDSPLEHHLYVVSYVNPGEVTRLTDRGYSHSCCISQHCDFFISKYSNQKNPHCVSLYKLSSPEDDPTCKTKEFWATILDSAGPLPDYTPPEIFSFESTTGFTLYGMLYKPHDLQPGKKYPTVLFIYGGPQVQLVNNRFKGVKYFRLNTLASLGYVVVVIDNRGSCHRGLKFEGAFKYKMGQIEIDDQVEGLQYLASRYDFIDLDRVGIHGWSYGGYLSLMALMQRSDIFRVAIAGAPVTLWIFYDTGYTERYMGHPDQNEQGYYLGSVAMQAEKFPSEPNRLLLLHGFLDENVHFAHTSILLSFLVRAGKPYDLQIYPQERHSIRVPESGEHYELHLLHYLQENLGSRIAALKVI

Compound: Nc1ncnc2c1ncn2[C@@H]1O[C@H](COP(=O)(O)OP(=O)(O)NP(=O)(O)O)[C@@H](O)[C@H]1O [adenylyl imidodiphosphate]
Experiment: NP40-soluble protein abundance relative to vehicle (solubility fold change) (ratio); higher = more soluble protein in presence of AMP-PNP
Procedure, shortened: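 Each value is a fold change relative to the detergent-processed vehicle, calculated per replicate from vsn-normalised intensities. Jurkat crude lysate received eight concentrations (0.1 to 10 mM) for 10 min at room temperature and 3 min at 37 °C, then was solubilised in 0.8% NP40 with benzonase (60 min, 4 °C). The ultracentrifuged supernatant was TMT-labelled and run by LC-MS/MS in three independent experiments.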

## UniProt Q6NT76 and related entries
concentration: 0.1mM
  NP40-soluble protein abundance: 1 ± 0.027
concentration: 0.5mM
  NP40-soluble protein abundance: 1 ± 0.05

## UniProt Q6IA17 and related entries
concentration: 0.1mM
  NP40-soluble protein abundance: 0.99 ± 0.036
concentration: 0.5mM
  NP40-soluble protein abundance: 0.981 ± 0.015

## FAM160B1 (UniProt Q5W0V3)
concentration: 0.1mM
  NP40-soluble protein abundance: 1.02 ± 0.039
concentration: 0.5mM
  NP40-soluble protein abundance: 1.02 ± 0.043

## RAB11FIP1 (UniProt Q6WKZ4)
concentration: 0.1mM
  NP40-soluble protein abundance: 0.973 ± 0.045
concentration: 0.5mM
  NP40-soluble protein abundance: 0.988 ± 0.035

## UniProt Q71F23
concentration: 0.1mM
  NP40-soluble protein abundance: 1.038 ± 0.0054
concentration: 0.5mM
  NP40-soluble protein abundance: 1.02 ± 0.028

## UniProt Q7Z4G4 and related entries
concentration: 0.1mM
  NP40-soluble protein abundance: 0.973 ± 0.036
concentration: 0.5mM
  NP40-soluble protein abundance: 0.974 ± 0.071

## RNF123 (UniProt Q5XPI4)
concentration: 0.1mM
  NP40-soluble protein abundance: 0.965 ± 0.017
concentration: 0.5mM
  NP40-soluble protein abundance: 0.967 ± 0.016

## MYSM1 (UniProt Q5VVJ2)
concentration: 0.1mM
  NP40-soluble protein abundance: 0.958 ± 0.038
concentration: 0.5mM
  NP40-soluble protein abundance: 0.948 ± 0.088

## UniProt Q7Z3D6-2
concentration: 0.1mM
  NP40-soluble protein abundance: 1 ± 0.017
concentration: 0.5mM
  NP40-soluble protein abundance: 1.02 ± 0.026

## UniProt Q7L5D6
concentration: 0.1mM
  NP40-soluble protein abundance: 1.05 ± 0.066
concentration: 0.5mM
  NP40-soluble protein abundance: 1.05 ± 0.12

## ANKRD16 (UniProt Q6P6B7)
concentration: 0.1mM
  NP40-soluble protein abundance: 1 ± 0.033
concentration: 0.5mM
  NP40-soluble protein abundance: 0.996 ± 0.022

## UniProt Q6R327 and related entries
concentration: 0.1mM
  NP40-soluble protein abundance: 1.02 ± 0.043
concentration: 0.5mM
  NP40-soluble protein abundance: 0.9898 ± 0.0068

## UniProt Q7Z2K8 and related entries
concentration: 0.1mM
  NP40-soluble protein abundance: 1.019 ± 0.01
concentration: 0.5mM
  NP40-soluble protein abundance: 0.924 ± 0.054

## UniProt Q6IQ49 and related entries
concentration: 0.1mM
  NP40-soluble protein abundance: 0.953 ± 0.021
concentration: 0.5mM
  NP40-soluble protein abundance: 0.96 ± 0.012

## UniProt Q5VWP2
concentration: 0.1mM
  NP40-soluble protein abundance: 1 ± 0.04
concentration: 0.5mM
  NP40-soluble protein abundance: 1.02 ± 0.031

## CYB5R4 (UniProt Q7L1T6)
concentration: 0.1mM
  NP40-soluble protein abundance: 0.984 ± 0.031
concentration: 0.5mM
  NP40-soluble protein abundance: 0.9947 ± 0.0071

## ATAD2 (UniProt Q6PL18)
concentration: 0.1mM
  NP40-soluble protein abundance: 1.01 ± 0.051
concentration: 0.5mM
  NP40-soluble protein abundance: 0.97 ± 0.035

## METTL2B (UniProt Q6P1Q9)
concentration: 0.1mM
  NP40-soluble protein abundance: 1.003 ± 0.0024
concentration: 0.5mM
  NP40-soluble protein abundance: 1.009 ± 0.0096

## WDR73 (UniProt Q6P4I2)
concentration: 0.1mM
  NP40-soluble protein abundance: 0.996 ± 0.018
concentration: 0.5mM
  NP40-soluble protein abundance: 0.963 ± 0.03

## UniProt Q7L4I2 and related entries
concentration: 0.1mM
  NP40-soluble protein abundance: 1.03 ± 0.025
concentration: 0.5mM
  NP40-soluble protein abundance: 1.018 ± 0.0023

## UniProt Q6PII3 and related entries
concentration: 0.1mM
  NP40-soluble protein abundance: 0.983 ± 0.013
concentration: 0.5mM
  NP40-soluble protein abundance: 0.974 ± 0.018

## MRPL14 (UniProt Q6P1L8)
concentration: 0.1mM
  NP40-soluble protein abundance: 1.01 ± 0.033
concentration: 0.5mM
  NP40-soluble protein abundance: 1.01 ± 0.046

## UniProt Q7L5Y1 and related entries
concentration: 0.1mM
  NP40-soluble protein abundance: 1.005 ± 0.007
concentration: 0.5mM
  NP40-soluble protein abundance: 0.995 ± 0.046

## UHRF1BP1 (UniProt Q6BDS2)
concentration: 0.1mM
  NP40-soluble protein abundance: 0.998 ± 0.025
concentration: 0.5mM
  NP40-soluble protein abundance: 0.97 ± 0.05

## UniProt Q6UWE0 and related entries
concentration: 0.1mM
  NP40-soluble protein abundance: 1.002 ± 0.0039
concentration: 0.5mM
  NP40-soluble protein abundance: 0.979 ± 0.014

## FDX2 (UniProt Q6P4F2)
concentration: 0.1mM
  NP40-soluble protein abundance: 0.96 ± 0.029
concentration: 0.5mM
  NP40-soluble protein abundance: 1 ± 0.019

## UniProt Q6P1N0 and related entries
concentration: 0.1mM
  NP40-soluble protein abundance: 0.991 ± 0.016
concentration: 0.5mM
  NP40-soluble protein abundance: 0.9781 ± 0.0094

## UniProt Q6ICB0
concentration: 0.1mM
  NP40-soluble protein abundance: 1 ± 0.038
concentration: 0.5mM
  NP40-soluble protein abundance: 1 ± 0.03

## UniProt Q6F5E8 and related entries
concentration: 0.1mM
  NP40-soluble protein abundance: 1.02 ± 0.058
concentration: 0.5mM
  NP40-soluble protein abundance: 0.993 ± 0.011

## UniProt Q6GQQ9 and related entries
concentration: 0.1mM
  NP40-soluble protein abundance: 0.9867 ± 0.0053
concentration: 0.5mM
  NP40-soluble protein abundance: 1.01 ± 0.021

## UniProt Q6UN15 and related entries
concentration: 0.1mM
  NP40-soluble protein abundance: 0.997 ± 0.033
concentration: 0.5mM
  NP40-soluble protein abundance: 1.02 ± 0.067

## RCSD1 (UniProt Q6JBY9)
concentration: 0.1mM
  NP40-soluble protein abundance: 0.972 ± 0.048
concentration: 0.5mM
  NP40-soluble protein abundance: 0.971 ± 0.027

## HS2ST1 (UniProt Q7LGA3)
concentration: 0.1mM
  NP40-soluble protein abundance: 1.03 ± 0.053
concentration: 0.5mM
  NP40-soluble protein abundance: 1.04 ± 0.028

## CTR9 (UniProt Q6PD62)
concentration: 0.1mM
  NP40-soluble protein abundance: 1.01 ± 0.027
concentration: 0.5mM
  NP40-soluble protein abundance: 1 ± 0.048

## UniProt Q5VZI3 and related entries
concentration: 0.1mM
  NP40-soluble protein abundance: 1.02 ± 0.02
concentration: 0.5mM
  NP40-soluble protein abundance: 1 ± 0.024

## UniProt Q7Z4H3 and related entries
concentration: 0.1mM
  NP40-soluble protein abundance: 0.978 ± 0.07
concentration: 0.5mM
  NP40-soluble protein abundance: 1.02 ± 0.092

## CNNM4 (UniProt Q6P4Q7)
concentration: 0.1mM
  NP40-soluble protein abundance: 0.986 ± 0.044
concentration: 0.5mM
  NP40-soluble protein abundance: 0.984 ± 0.017

## TYW3 (UniProt Q6IPR3)
concentration: 0.1mM
  NP40-soluble protein abundance: 1.02 ± 0.065
concentration: 0.5mM
  NP40-soluble protein abundance: 1.01 ± 0.042

## UniProt Q5W0B1
concentration: 0.1mM
  NP40-soluble protein abundance: 1 ± 0.022
concentration: 0.5mM
  NP40-soluble protein abundance: 1.01 ± 0.058

## INTS5 (UniProt Q6P9B9)
concentration: 0.1mM
  NP40-soluble protein abundance: 1.03 ± 0.033
concentration: 0.5mM
  NP40-soluble protein abundance: 1.03 ± 0.024

## UniProt Q6P4E1-2|Q6P4E1-4|Q6P4E1-5|Q6P4E1
concentration: 0.1mM
  NP40-soluble protein abundance: 0.977 ± 0.047
concentration: 0.5mM
  NP40-soluble protein abundance: 1 ± 0.071

## PGM2L1 (UniProt Q6PCE3)
concentration: 0.1mM
  NP40-soluble protein abundance: 0.965 ± 0.017
concentration: 0.5mM
  NP40-soluble protein abundance: 0.986 ± 0.01

## UniProt Q68DK2 and related entries
concentration: 0.1mM
  NP40-soluble protein abundance: 1.027 ± 0.0066
concentration: 0.5mM
  NP40-soluble protein abundance: 1.01 ± 0.031

## SNRNP48 (UniProt Q6IEG0)
concentration: 0.1mM
  NP40-soluble protein abundance: 1.01 ± 0.055
concentration: 0.5mM
  NP40-soluble protein abundance: 1.03 ± 0.085

## TWF2 (UniProt Q6IBS0)
concentration: 0.1mM
  NP40-soluble protein abundance: 0.98 ± 0.033
concentration: 0.5mM
  NP40-soluble protein abundance: 1 ± 0.072

## NCR3LG1 (UniProt Q68D85)
concentration: 0.1mM
  NP40-soluble protein abundance: 0.991 ± 0.014
concentration: 0.5mM
  NP40-soluble protein abundance: 1.011 ± 0.004

## UniProt Q6V1X1 and related entries
concentration: 0.1mM
  NP40-soluble protein abundance: 0.977 ± 0.047
concentration: 0.5mM
  NP40-soluble protein abundance: 0.953 ± 0.098

## UniProt Q6IA86 and related entries
concentration: 0.1mM
  NP40-soluble protein abundance: 1.05 ± 0.031
concentration: 0.5mM
  NP40-soluble protein abundance: 0.988 ± 0.11

## UniProt Q7L1Q6
concentration: 0.1mM
  NP40-soluble protein abundance: 0.985 ± 0.04
concentration: 0.5mM
  NP40-soluble protein abundance: 1.01 ± 0.037

## ERICH5 (UniProt Q6P6B1)
concentration: 0.1mM
  NP40-soluble protein abundance: 0.957 ± 0.03
concentration: 0.5mM
  NP40-soluble protein abundance: 0.976 ± 0.044

## UniProt Q6ZT12 and related entries
concentration: 0.1mM
  NP40-soluble protein abundance: 1.03 ± 0.029
concentration: 0.5mM
  NP40-soluble protein abundance: 0.984 ± 0.012

## UniProt Q6P1A2 and related entries
concentration: 0.1mM
  NP40-soluble protein abundance: 0.997 ± 0.037
concentration: 0.5mM
  NP40-soluble protein abundance: 0.9972 ± 0.0066

## EDC4 (UniProt Q6P2E9)
concentration: 0.1mM
  NP40-soluble protein abundance: 0.982 ± 0.0099
concentration: 0.5mM
  NP40-soluble protein abundance: 1.01 ± 0.023

## UniProt Q7L592
concentration: 0.1mM
  NP40-soluble protein abundance: 0.988 ± 0.014
concentration: 0.5mM
  NP40-soluble protein abundance: 0.996 ± 0.013

## SMYD5 (UniProt Q6GMV2)
concentration: 0.1mM
  NP40-soluble protein abundance: 1.01 ± 0.03
concentration: 0.5mM
  NP40-soluble protein abundance: 0.981 ± 0.046

## ZCCHC8 (UniProt Q6NZY4)
concentration: 0.1mM
  NP40-soluble protein abundance: 0.985 ± 0.022
concentration: 0.5mM
  NP40-soluble protein abundance: 0.989 ± 0.049

## UniProt Q709C8 and related entries
concentration: 0.1mM
  NP40-soluble protein abundance: 0.991 ± 0.043
concentration: 0.5mM
  NP40-soluble protein abundance: 0.959 ± 0.08

## UniProt Q6ZNJ1 and related entries
concentration: 0.1mM
  NP40-soluble protein abundance: 1.02 ± 0.021
concentration: 0.5mM
  NP40-soluble protein abundance: 0.987 ± 0.037

## SLC25A24 (UniProt Q6NUK1)
concentration: 0.1mM
  NP40-soluble protein abundance: 0.986 ± 0.015
concentration: 0.5mM
  NP40-soluble protein abundance: 1.01 ± 0.048

## UniProt Q6IN85
concentration: 0.1mM
  NP40-soluble protein abundance: 1.003 ± 0.0032
concentration: 0.5mM
  NP40-soluble protein abundance: 1 ± 0.013
